PubChem BioAssay AID1508588 – Peter MacCallum Cancer Centre – 2020
Assay: 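Genome-wide search for knock-downs that heighten vemurafenib action in melanoma cells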 (primary screen). Cell system: human WM266.4 melanoma cells (BRAF V600 mutant). Reagents: siRNA pool against human genes, 40 nM. Time to read-out: 96 h from transfection to read-out. Treatment: vemurafenib 300 nM (about IC25), added 48 h after transfection, for 48 h; comparison arm got DMSO vehicle only. Detection: 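Ratios to non-targeting siRNA for cell gain, counted as DAPI nuclei after minus before drug and averaged over two replicates, and for absorbance-read medium lactate per cell; both binned into fold-change classes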. Direction: cell gain with vemurafenib: higher = more cell gain than with non-targeting siRNA; lactate per cell with vemurafenib: higher = more lactate made per cell. Call rule: 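a knock-down counts as enhancing when its fold-change classes with vehicle and with vemurafenib, taken together, show a stronger drug effect on cell gain or lactate per cell; exact class pairs not stated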. Calls: active = enhances vemurafenib effect; inactive = no enhancement seen.
Shown is an unselected part of about 18,000 reagents. Of all reagents, 790 (4.4%) were called active. 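Calls rest on a combination of fold-change classes in drug and vehicle arms, not all shown here.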

| gene | cell gain with vemurafenib | lactate per cell with vemurafenib | activity call |
| --- | --- | --- | --- |
| FBXW2 | 0.13 | 2.09 | inactive |
| ZNF568 | 0.28 | 1.23 | inactive |
| CABLES1 | 0.24 | 1.39 | inactive |
| GMDS | 0.43 | 2.39 | inactive |
| GCG | 0.69 | 1.48 | inactive |
| SLC35F2 | 0.41 | 1.18 | inactive |
| RAB33B | 0.8 | 1.08 | inactive |
| LY6G5B | 0.61 | 1.4 | inactive |
| LRRC31 | 0.5 | 1.36 | inactive |
| RFT1 | 0.18 | 1.12 | inactive |
| FBXW10B | 0.38 | 1.31 | inactive |
| ZNF442 | 0.43 | 1.09 | inactive |
| RHCE | 0.47 | 0.86 | inactive |
| EXOSC5 | 0.83 | 0.78 | inactive |
| RNASEH2C | 0.54 | 1.76 | inactive |
| CLIP4 | 0.48 | 0.66 | inactive |
| OLIG3 | 0.46 | 1.33 | inactive |
| EFCAB13 | 0.74 | 0.51 | inactive |
| HMCN1 | 0.11 | 1.21 | inactive |
| CARD9 | 0.5 | 0.98 | inactive |
| SCP2D1 | 0.14 | 1.71 | inactive |
| PRDM10 | 0.74 | 1.34 | inactive |
| LMX1B | 0.23 | 1.81 | inactive |
| DKC1 | 0.63 | 0.5 | inactive |
| SERPINE1 | 0.49 | 0.56 | inactive |
| ANXA5 | 0.41 | 1.86 | inactive |
| CFH | 1.29 | 0.92 | inactive |
| DLL4 | 0.93 | 0.7 | inactive |
| SLC2A13 | 0.34 | 0.86 | inactive |
| PKHD1L1 | 0.08 | 0.7 | inactive |
| CDK5RAP3 | 0.38 | 0.78 | inactive |

Next part (4 carried over from the part before).
| gene | cell gain with vemurafenib | lactate per cell with vemurafenib | activity call |
| --- | --- | --- | --- |
| DLL4 | 0.93 | 0.7 | inactive |
| SLC2A13 | 0.34 | 0.86 | inactive |
| PKHD1L1 | 0.08 | 0.7 | inactive |
| CDK5RAP3 | 0.38 | 0.78 | inactive |
| HECA | 1.21 | 0.52 | inactive |
| TBC1D4 | 0.77 | 0.94 | inactive |
| IGSF11 | 0.84 | 0.56 | inactive |
| PRRG1 | 0.9 | 0.75 | inactive |
| JOSD1 | 0.67 | 0.7 | inactive |
| COX7B | 0.64 | 1.25 | inactive |
| BEST1 | 0.17 | 0.36 | active |
| KRTAP4-5 | 0.72 | 0.94 | inactive |
| ZPLD1 | 0.8 | 0.44 | inactive |
| CCDC63 | 0.58 | 1 | inactive |
| NUAK1 | 0.73 | 1.4 | inactive |
| POLR3G | 0.49 | 1.16 | inactive |
| AMPD1 | 1.28 | 0.86 | inactive |
| PTEN | 0.63 | 1.2 | inactive |
| MFSD12 | 0.55 | 0.93 | inactive |
| TBC1D22B | 0.64 | 1.01 | inactive |
| PTPRA | 0.83 | 0.84 | inactive |
| FADS6 | 0.48 | 1.04 | inactive |
| SORCS2 | 0.2 | 0.87 | inactive |
| OR5AR1 | 0.52 | 0.6 | inactive |
| TRAF6 | 1.1 | 0.68 | inactive |
| ACTR1B | 1.15 | 1.16 | inactive |
| CACNB4 | 0.77 | 0.34 | inactive |
| ZBP1 | 0.61 | 0.6 | inactive |
| ZNF407 | 0.34 | 0.84 | inactive |
| CBS | 0.73 | 0.82 | inactive |
